Laboratory results as given in PubChem BioAssay AID250 (DTP/NCI, 2004).
The list shows only some results of the screen, not a fair sample: it is rich in T/C values a quarter to a half above the control, in often repeated tests (any T/C) and in doses without a T/C. Further doses and runs are listed elsewhere. T/C: endpoint of the treated group in % of that of the vehicle group. Some doses have a count of surviving animals in place of a T/C: the source files T/C as zero there, which appears to mark a toxic dose or a test without result, not a measured value. Some doses without a T/C left all or most animals alive at the check, yet need not have been tolerated: survival well below the control is almost never listed, so the zero probably covers shortened survival too. For part of these data: Survivors were counted at the toxicity check, usually on the fifth day, unless a day is given; later deaths do not show. Schedules are NCI's codes, read here as Q, the interval in days (D) or hours (H), X, the number of doses. Some schedule codes hold Z or #, which are not explained here. Some structures stand for samples that the source files as different forms (salt, stereo form or complex); doses refer to the form tested. For survival time, this PubChem deposit counts one and a half times the control or more as active, and values a quarter to a half above the control carry no call in these data; other NCI protocols may use other cut-offs. Some T/C values are followed by the survivors on the day toxicity was checked, most often the fifth; without a count, all were alive then. Some entries were tested several times; the results are listed from low to high.

What was measured:
[1] = tested on: BDF1 mice, L1210 leukemia sc; test: NCI In Vivo Anticancer Drug Screen. Data for tumor model L1210 Leukemia (subcutaneous) in B6D2F1 (BDF1) mice; conditions: T/C endpoint: median survival time, vehicle: water, higher T/C = longer survival
Outline: (§1)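 Mice carrying transplanted tumors received test compounds, and survival or tumor size was measured. Values are the treated-group measurement (T) divided by that of the vehicle-treated control group (C).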

[2] = tested on: BDF1 mice, L1210 leukemia sc, survival T/C; test: as above; conditions: T/C endpoint: median survival time, vehicle: water, higher T/C = longer survival; for T/C: schedule: Q01DX009 (sc)
Outline: as §1

N=c1ccn2c(n1)OC1C(O)C(CO)OC12 (stereo not drawn)
T/C ([1]; dose: 37.5 mg/kg/injection, schedule: Q03HX008 (sc)): 130 % of control [7 of 8 alive]
T/C ([1]; dose: 65.0 mg/kg/injection, schedule: Q01DX015 (sc), evaluated on day 7): 144 % of control
T/C ([1]; dose: 65.0 mg/kg/injection, schedule: Q01DX015 (sc), evaluated on day 64): 144 % of control
T/C ([1]; dose: 75.0 mg/kg/injection, schedule: Q03HX008 (sc)): 140 % of control
T/C ([1]; dose: 150.0 mg/kg/injection, schedule: Q04DX003 (sc)): 145 % of control
T/C ([1]; dose: 400.0 mg/kg/injection, schedule: Q01DX001 (sc), evaluated on day 5): 131 % of control
T/C ([1]; dose: 400.0 mg/kg/injection, schedule: Q01DX001 (sc), evaluated on day 35): 130 % of control
T/C ([1]; dose: 400.0 mg/kg/injection, schedule: Q01DX009 (sc)): 133 % of control
T/C ([1]; dose: 400.0 mg/kg/injection, schedule: Q## X009 (sc)): 133 % of control [7 of 8 alive]
T/C ([1]; dose: 500.0 mg/kg/injection, schedule: Q01DX009 (sc), evaluated on day 7): 132 and 138 % of control
T/C ([1]; dose: 500.0 mg/kg/injection, schedule: Q01DX009 (sc), evaluated on day 30): 132 [7 of 8 alive] and 138 % of control
T/C ([1]; dose: 600.0 mg/kg/injection, schedule: Q01DX001 (sc)): 130 % of control
T/C ([1]; dose: 600.0 mg/kg/injection, schedule: Q01DX009 (sc), evaluated on day 7): 141 % of control
T/C ([1]; dose: 600.0 mg/kg/injection, schedule: Q## X009 (sc)): 141 % of control
T/C ([1]; dose: 800.0 mg/kg/injection, schedule: Q01DX001 (sc), evaluated on day 5): 137 % of control
T/C ([1]; dose: 800.0 mg/kg/injection, schedule: Q01DX001 (sc), evaluated on day 35): 130 % of control [6 of 8 alive]
T/C ([1]; dose: 800.0 mg/kg/injection, schedule: Q01DX009 (sc), evaluated on day 7): 134 % of control
T/C ([1]; dose: 800.0 mg/kg/injection, schedule: Q01DX009 (sc), evaluated on day 35): 130 % of control
T/C ([1]; dose: 833.0 mg/kg/injection, schedule: Q01DX009 (sc), evaluated on day 7): 129 and 135 % of control
T/C ([1]; dose: 833.0 mg/kg/injection, schedule: Q01DX009 (sc), evaluated on day 30): 135 % of control
T/C ([1]; dose: 833.0 mg/kg/injection, schedule: Q01DX009 (sc), evaluated on day 33): 133 % of control
T/C ([1]; dose: 833.0 mg/kg/injection, schedule: Q01DX014 (sc), evaluated on day 7): 130 % of control
T/C ([1]; dose: 833.0 mg/kg/injection, schedule: Q01DX014 (sc), evaluated on day 63): 130 % of control
T/C ([1]; dose: 1200.0 mg/kg/injection, schedule: Q01DX001 (sc)): 140 % of control
T/C ([1]; dose: 2400.0 mg/kg/injection, schedule: Q04DX003 (sc)): 130 % of control [7 of 8 alive]
T/C ([2]; dose: 39.0 mg/kg/injection, evaluated on day 7): 189 and 192 % of control
T/C ([2]; dose: 39.0 mg/kg/injection, evaluated on day 30): 166 and 194 % of control
T/C ([2]; dose: 39.0 mg/kg/injection, evaluated on day 31): 188 % of control
T/C ([2]; dose: 47.0 mg/kg/injection, evaluated on day 7): 174 and 187 % of control
T/C ([2]; dose: 47.0 mg/kg/injection, evaluated on day 32): 173 and 189 % of control
T/C ([2]; dose: 65.0 mg/kg/injection, evaluated on day 7): 197 and 205 % of control
T/C ([2]; dose: 65.0 mg/kg/injection, evaluated on day 30): 194 and 211 % of control
T/C ([2]; dose: 65.0 mg/kg/injection, evaluated on day 31): 194 % of control
T/C ([2]; dose: 78.0 mg/kg/injection, evaluated on day 7): 186 and 197 % of control
T/C ([2]; dose: 78.0 mg/kg/injection, evaluated on day 32): 189 and 200 % of control
T/C ([2]; dose: 108.0 mg/kg/injection, evaluated on day 7): 211, 212, 218 % of control
T/C ([2]; dose: 108.0 mg/kg/injection, evaluated on day 30): 205 and 222 % of control
T/C ([2]; dose: 108.0 mg/kg/injection, evaluated on day 31): 211 % of control
T/C ([2]; dose: 108.0 mg/kg/injection, evaluated on day 33): 222 % of control
T/C ([2]; dose: 130.0 mg/kg/injection, evaluated on day 7): 194 and 201 % of control
T/C ([2]; dose: 130.0 mg/kg/injection, evaluated on day 32): 194 and 200 % of control
T/C ([2]; dose: 180.0 mg/kg/injection, evaluated on day 7): 215, 221, 226 % of control
T/C ([2]; dose: 180.0 mg/kg/injection, evaluated on day 30): 211 and 222 % of control
T/C ([2]; dose: 180.0 mg/kg/injection, evaluated on day 31): 222 % of control
T/C ([2]; dose: 180.0 mg/kg/injection, evaluated on day 33): 222 % of control
T/C ([2]; dose: 216.0 mg/kg/injection, evaluated on day 7): 187 and 221 % of control
T/C ([2]; dose: 216.0 mg/kg/injection, evaluated on day 32): 184 and 221 % of control
T/C ([2]; dose: 300.0 mg/kg/injection, evaluated on day 7): 218, 242, 244, 245 % of control
T/C ([2]; dose: 300.0 mg/kg/injection, evaluated on day 30): 238 and 244 % of control
T/C ([2]; dose: 300.0 mg/kg/injection, evaluated on day 31): 238 % of control
T/C ([2]; dose: 300.0 mg/kg/injection, evaluated on day 33): 250 % of control
T/C ([2]; dose: 360.0 mg/kg/injection, evaluated on day 7): 218 and 232 % of control
T/C ([2]; dose: 360.0 mg/kg/injection, evaluated on day 32): 205 and 231 % of control
T/C ([2]; dose: 500.0 mg/kg/injection, evaluated on day 7): 155 and 162 % of control
T/C ([2]; dose: 500.0 mg/kg/injection, evaluated on day 30): 194 % of control
T/C ([2]; dose: 500.0 mg/kg/injection, evaluated on day 31): 155 % of control
T/C ([2]; dose: 500.0 mg/kg/injection, evaluated on day 33): 166 % of control
T/C ([2]; dose: 600.0 mg/kg/injection, evaluated on day 7): 166 and 250 % of control
T/C ([2]; dose: 600.0 mg/kg/injection, evaluated on day 29): 115 % of control
T/C ([2]; dose: 600.0 mg/kg/injection, evaluated on day 32): 168 and 242 % of control [7 of 8 alive]
survivor count ([2]; dose: 800.0 mg/kg/injection, schedule: Q## X009 (sc)): 7 of 8
T/C ([2]; dose: 833.0 mg/kg/injection, evaluated on day 7): 121 % of control
T/C ([2]; dose: 833.0 mg/kg/injection, evaluated on day 30): 122 % of control
